Results deposited as PubChem BioAssay AID1259254 (NCATS, 2017)

Assay: 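Genome-wide screen for genes that prevent DNA re-replication in cancer cells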 (primary screen)
Cell system: human HCT116 colorectal cancer cells
Reagent: single siRNA against human genes
Time to read-out: 3 days
Read-out: 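Nuclei stained with Hoechst and imaged; cell-cycle phase assigned by DNA content; G2 share scaled per plate, non-targeting siRNA 0%, GMNN siRNA 100%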
Scale: G2 robust z-score and G2 cells, % of GMNN control: higher = more G2 cells, more excess DNA replication
Active means: 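An siRNA counts as active if its G2 robust z-score lies at least 5 MADs above the screen median; here such calls match roughly 38% of GMNN control or more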
Here is an unselected part of about 59,000 reagents. About 1,550 of them (2.6%) were called active. 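G2 share is only a proxy for re-replication; each gene was hit by three separate siRNAs, and active genes were retested.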 Reagents against one gene are numbered here. Further read-outs or replicates are left out here. Not stated in the record: the amount of reagent.

TCEANC #1: G2 robust z-score = -0.15; G2 cells, % of GMNN control = 1.91; call = inactive
TCEANC #2: G2 robust z-score = 1.15; G2 cells, % of GMNN control = 11; call = inactive
TCEANC #3: G2 robust z-score = -0.318; G2 cells, % of GMNN control = 0.731; call = inactive
LOC646938 #1: G2 robust z-score = 0.651; G2 cells, % of GMNN control = 7.55; call = inactive
LOC646938 #2: G2 robust z-score = 0.245; G2 cells, % of GMNN control = 4.69; call = inactive
LOC646938 #3: G2 robust z-score = 0.228; G2 cells, % of GMNN control = 4.57; call = inactive
DPYS #1: G2 robust z-score = 6.42; G2 cells, % of GMNN control = 48.1; call = active
DPYS #2: G2 robust z-score = -0.561; G2 cells, % of GMNN control = -0.979; call = inactive
DPYS #3: G2 robust z-score = -0.228; G2 cells, % of GMNN control = 1.36; call = inactive
SOX12 #1: G2 robust z-score = 0.708; G2 cells, % of GMNN control = 7.95; call = inactive
SOX12 #2: G2 robust z-score = 0.578; G2 cells, % of GMNN control = 7.04; call = inactive
SOX12 #3: G2 robust z-score = -0.612; G2 cells, % of GMNN control = -1.34; call = inactive
CCNB2 #1: G2 robust z-score = -0.819; G2 cells, % of GMNN control = -2.8; call = inactive
CCNB2 #2: G2 robust z-score = -0.429; G2 cells, % of GMNN control = -0.0508; call = inactive
CCNB2 #3: G2 robust z-score = 1.79; G2 cells, % of GMNN control = 15.5; call = inactive
FBL #1: G2 robust z-score = 2.01; G2 cells, % of GMNN control = 17.1; call = inactive
FBL #2: G2 robust z-score = 6.9; G2 cells, % of GMNN control = 51.5; call = active
FBL #3: G2 robust z-score = -1.02; G2 cells, % of GMNN control = -4.2; call = inactive
CBFA2T2 #1: G2 robust z-score = -0.956; G2 cells, % of GMNN control = -3.76; call = inactive
CBFA2T2 #2: G2 robust z-score = 0.995; G2 cells, % of GMNN control = 9.97; call = inactive
CBFA2T2 #3: G2 robust z-score = 2.51; G2 cells, % of GMNN control = 20.6; call = inactive
FAM201A #1: G2 robust z-score = -0.691; G2 cells, % of GMNN control = -1.9; call = inactive
FAM201A #2: G2 robust z-score = 0.243; G2 cells, % of GMNN control = 4.67; call = inactive
FAM201A #3: G2 robust z-score = 3.77; G2 cells, % of GMNN control = 29.5; call = inactive

4 neighbouring entries already listed, for reference:
SOX12 #2: G2 robust z-score = 0.578; G2 cells, % of GMNN control = 7.04; call = inactive
SOX12 #3: G2 robust z-score = -0.612; G2 cells, % of GMNN control = -1.34; call = inactive
CCNB2 #1: G2 robust z-score = -0.819; G2 cells, % of GMNN control = -2.8; call = inactive
CCNB2 #2: G2 robust z-score = -0.429; G2 cells, % of GMNN control = -0.0508; call = inactive
